The other results are listed elsewhere or left out.

Protein sequences, listed by entry. Tags and fused reporters are not part of them. Lines headed by an entry give the natural chain unless they say otherwise; changes in a name come on top.
UniProt Q9BXJ8: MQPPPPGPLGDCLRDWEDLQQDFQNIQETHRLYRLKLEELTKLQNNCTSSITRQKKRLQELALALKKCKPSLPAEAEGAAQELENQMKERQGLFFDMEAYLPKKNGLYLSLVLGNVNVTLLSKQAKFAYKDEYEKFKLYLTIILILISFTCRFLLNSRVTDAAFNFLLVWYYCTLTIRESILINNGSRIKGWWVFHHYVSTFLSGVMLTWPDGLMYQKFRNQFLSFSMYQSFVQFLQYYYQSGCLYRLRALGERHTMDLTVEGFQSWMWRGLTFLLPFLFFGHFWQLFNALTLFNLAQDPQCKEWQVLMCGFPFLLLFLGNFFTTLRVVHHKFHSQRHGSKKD
UniProt Q7Z403: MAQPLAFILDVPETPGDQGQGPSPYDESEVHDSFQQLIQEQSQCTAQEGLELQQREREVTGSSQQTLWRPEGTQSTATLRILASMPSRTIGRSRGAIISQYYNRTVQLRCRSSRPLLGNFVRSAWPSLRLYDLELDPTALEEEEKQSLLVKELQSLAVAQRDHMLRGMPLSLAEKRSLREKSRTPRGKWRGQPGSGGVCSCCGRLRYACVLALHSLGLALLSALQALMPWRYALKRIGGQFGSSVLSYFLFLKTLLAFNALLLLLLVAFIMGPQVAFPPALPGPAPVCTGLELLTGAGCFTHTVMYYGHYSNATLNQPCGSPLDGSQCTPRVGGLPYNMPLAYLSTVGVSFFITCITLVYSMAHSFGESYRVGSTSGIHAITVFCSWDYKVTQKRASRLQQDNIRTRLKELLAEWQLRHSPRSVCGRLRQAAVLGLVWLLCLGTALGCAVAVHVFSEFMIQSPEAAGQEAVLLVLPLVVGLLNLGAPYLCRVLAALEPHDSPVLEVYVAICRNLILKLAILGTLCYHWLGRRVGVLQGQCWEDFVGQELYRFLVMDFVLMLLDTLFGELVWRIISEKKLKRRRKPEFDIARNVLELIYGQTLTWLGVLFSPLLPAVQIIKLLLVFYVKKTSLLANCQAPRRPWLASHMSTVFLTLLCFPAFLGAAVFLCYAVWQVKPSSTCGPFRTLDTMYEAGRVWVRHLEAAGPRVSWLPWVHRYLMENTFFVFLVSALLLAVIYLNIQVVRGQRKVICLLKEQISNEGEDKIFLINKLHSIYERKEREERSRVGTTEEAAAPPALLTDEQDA
UniProt Q9H7F4: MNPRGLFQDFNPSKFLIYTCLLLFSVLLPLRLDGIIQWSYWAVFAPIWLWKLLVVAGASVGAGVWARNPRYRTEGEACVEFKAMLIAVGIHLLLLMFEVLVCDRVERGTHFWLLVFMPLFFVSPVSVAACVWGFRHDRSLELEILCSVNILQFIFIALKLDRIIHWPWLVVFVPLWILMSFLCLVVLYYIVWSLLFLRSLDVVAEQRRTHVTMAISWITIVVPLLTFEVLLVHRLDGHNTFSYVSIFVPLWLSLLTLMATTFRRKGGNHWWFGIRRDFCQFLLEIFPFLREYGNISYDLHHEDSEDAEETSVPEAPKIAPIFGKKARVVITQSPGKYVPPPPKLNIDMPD
UniProt Q9H0R3: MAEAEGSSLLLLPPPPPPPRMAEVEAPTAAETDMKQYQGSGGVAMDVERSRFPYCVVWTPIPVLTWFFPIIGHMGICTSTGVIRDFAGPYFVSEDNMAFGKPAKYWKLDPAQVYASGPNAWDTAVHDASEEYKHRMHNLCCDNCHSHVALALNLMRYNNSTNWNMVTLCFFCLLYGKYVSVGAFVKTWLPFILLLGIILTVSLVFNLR
UniProt Q13445: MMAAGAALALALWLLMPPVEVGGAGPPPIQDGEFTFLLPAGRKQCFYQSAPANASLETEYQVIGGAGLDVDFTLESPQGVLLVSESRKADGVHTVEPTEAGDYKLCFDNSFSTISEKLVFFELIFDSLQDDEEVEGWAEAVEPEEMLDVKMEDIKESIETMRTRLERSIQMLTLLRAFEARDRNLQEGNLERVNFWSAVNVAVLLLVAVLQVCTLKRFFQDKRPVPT
UniProt Q5SWH9: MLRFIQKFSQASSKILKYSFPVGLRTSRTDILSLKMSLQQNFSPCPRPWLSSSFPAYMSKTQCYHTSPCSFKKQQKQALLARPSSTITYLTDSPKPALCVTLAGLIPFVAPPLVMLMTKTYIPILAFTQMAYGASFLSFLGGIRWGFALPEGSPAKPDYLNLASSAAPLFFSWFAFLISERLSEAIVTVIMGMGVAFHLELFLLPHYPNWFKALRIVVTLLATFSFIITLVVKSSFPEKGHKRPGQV
UniProt Q96MH6: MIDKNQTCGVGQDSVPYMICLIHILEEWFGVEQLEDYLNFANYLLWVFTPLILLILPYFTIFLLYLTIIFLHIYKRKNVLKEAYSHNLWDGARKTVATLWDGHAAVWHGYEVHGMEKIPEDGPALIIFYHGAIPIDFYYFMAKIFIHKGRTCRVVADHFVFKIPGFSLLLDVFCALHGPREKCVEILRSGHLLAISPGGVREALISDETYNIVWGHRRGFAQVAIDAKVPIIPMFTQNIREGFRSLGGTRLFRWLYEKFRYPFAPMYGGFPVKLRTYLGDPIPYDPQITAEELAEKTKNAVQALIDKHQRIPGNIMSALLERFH
UniProt Q08117: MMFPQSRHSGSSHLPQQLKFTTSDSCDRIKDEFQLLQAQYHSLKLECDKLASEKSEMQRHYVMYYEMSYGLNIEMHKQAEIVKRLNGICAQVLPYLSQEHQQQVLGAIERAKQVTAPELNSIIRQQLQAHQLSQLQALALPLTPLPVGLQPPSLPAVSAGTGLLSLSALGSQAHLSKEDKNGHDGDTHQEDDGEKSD
UniProt Q8NBN3: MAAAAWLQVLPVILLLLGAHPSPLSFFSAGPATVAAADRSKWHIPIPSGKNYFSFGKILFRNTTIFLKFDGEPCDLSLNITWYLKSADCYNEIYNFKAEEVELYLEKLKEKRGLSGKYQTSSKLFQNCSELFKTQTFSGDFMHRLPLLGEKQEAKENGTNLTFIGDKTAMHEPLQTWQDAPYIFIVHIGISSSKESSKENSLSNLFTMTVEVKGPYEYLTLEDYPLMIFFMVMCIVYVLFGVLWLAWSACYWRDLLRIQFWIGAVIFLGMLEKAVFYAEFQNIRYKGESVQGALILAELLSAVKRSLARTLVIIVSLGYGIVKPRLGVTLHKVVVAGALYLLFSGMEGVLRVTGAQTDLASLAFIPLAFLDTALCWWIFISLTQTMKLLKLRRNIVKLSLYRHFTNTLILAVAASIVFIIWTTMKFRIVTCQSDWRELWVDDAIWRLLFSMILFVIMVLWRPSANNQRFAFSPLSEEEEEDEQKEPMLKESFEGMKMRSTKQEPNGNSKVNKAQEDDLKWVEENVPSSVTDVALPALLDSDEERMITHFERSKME
UniProt O00206, whole entry, looked up: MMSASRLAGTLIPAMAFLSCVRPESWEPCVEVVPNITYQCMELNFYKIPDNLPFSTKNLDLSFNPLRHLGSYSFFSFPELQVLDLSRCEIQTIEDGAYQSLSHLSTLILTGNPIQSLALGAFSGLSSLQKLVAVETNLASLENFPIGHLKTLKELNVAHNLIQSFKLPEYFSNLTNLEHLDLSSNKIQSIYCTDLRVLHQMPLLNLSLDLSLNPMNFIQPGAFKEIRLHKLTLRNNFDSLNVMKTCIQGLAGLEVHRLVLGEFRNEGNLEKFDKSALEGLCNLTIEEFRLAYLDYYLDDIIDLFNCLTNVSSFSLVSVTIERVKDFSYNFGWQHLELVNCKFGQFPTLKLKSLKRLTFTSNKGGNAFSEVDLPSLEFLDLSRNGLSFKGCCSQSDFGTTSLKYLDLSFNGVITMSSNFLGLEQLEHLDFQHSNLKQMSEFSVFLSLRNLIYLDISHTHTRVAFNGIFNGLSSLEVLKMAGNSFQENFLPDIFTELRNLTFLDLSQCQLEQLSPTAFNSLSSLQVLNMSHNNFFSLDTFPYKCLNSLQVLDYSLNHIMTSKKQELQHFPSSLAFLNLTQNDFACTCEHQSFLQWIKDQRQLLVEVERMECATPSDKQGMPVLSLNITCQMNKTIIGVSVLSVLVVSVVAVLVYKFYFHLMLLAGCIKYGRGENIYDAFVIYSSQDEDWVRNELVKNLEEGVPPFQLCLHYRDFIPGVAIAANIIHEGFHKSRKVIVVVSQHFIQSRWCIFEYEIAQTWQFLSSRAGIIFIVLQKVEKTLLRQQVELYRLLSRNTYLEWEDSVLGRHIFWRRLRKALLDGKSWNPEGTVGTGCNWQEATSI
UniProt Q4ZIN3: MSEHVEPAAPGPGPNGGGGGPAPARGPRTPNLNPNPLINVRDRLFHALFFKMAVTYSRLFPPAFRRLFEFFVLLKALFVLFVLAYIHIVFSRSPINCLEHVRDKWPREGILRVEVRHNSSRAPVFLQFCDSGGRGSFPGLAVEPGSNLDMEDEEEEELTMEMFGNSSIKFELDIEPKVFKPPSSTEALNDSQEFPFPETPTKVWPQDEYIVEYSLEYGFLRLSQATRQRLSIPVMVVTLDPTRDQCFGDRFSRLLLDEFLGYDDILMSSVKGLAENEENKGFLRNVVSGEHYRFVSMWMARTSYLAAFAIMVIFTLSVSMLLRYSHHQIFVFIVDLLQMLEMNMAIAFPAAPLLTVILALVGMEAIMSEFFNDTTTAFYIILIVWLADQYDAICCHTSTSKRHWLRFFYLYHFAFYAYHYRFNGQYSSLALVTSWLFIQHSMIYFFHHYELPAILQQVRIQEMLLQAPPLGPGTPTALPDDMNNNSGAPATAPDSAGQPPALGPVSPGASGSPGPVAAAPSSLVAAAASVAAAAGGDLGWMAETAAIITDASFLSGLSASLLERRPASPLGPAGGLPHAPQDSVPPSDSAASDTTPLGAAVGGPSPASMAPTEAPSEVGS
UniProt P42167: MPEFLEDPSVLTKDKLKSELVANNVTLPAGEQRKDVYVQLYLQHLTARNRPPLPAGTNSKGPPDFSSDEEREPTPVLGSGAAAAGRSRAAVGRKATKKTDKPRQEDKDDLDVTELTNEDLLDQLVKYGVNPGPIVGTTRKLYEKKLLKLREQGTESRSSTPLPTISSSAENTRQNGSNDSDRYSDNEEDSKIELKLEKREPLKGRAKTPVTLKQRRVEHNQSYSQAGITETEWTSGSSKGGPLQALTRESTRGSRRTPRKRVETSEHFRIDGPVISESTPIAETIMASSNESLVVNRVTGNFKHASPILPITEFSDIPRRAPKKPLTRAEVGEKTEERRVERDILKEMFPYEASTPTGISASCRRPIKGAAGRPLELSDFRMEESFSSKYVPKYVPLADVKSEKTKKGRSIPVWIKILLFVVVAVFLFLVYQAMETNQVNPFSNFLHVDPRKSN
UniProt Q8N131: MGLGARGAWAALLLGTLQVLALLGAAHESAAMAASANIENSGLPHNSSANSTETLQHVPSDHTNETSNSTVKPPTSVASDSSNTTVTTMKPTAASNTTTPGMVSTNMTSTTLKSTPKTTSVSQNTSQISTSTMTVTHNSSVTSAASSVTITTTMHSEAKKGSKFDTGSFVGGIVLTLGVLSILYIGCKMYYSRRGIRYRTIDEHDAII
UniProt Q8TBQ9: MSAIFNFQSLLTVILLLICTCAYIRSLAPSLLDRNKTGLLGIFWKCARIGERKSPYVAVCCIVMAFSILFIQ
UniProt P42166: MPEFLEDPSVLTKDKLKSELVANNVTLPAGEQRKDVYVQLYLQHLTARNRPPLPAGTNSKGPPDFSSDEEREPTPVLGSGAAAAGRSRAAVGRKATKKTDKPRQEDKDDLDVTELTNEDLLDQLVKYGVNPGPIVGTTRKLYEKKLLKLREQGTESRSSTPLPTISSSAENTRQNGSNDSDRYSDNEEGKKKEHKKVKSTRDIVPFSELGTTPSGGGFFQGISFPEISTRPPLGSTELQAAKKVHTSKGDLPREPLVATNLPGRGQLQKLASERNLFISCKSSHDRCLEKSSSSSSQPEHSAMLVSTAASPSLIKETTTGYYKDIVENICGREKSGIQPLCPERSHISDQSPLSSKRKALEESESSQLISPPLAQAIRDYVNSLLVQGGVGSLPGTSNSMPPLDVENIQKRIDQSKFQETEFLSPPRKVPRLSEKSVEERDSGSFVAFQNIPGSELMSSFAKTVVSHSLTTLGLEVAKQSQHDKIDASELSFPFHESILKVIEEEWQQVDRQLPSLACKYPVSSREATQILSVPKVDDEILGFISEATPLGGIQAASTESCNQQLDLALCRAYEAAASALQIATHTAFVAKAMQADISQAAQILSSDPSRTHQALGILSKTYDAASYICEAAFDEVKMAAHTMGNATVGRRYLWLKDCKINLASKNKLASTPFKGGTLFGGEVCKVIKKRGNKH
UniProt Q96Q45: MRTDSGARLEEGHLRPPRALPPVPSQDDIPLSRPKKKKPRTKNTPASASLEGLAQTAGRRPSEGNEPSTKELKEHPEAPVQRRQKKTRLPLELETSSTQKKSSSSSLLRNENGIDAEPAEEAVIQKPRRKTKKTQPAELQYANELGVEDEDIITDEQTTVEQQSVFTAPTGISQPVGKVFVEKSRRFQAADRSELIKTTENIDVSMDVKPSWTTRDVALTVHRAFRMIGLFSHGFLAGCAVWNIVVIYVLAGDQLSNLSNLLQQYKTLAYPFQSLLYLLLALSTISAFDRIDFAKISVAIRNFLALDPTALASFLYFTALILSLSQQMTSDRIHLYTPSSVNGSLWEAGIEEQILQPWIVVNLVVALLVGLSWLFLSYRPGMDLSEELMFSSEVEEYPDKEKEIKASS

Compound in the assay: c1cn2cc(-c3ccc4cn[nH]c4c3)nc(Nc3ccc(N4CCOCC4)cc3)c2n1 [entospletinib]
The experiment in a line: log2 fold change, soluble protein after heating vs DMSO (PISA); higher = thermal stabilisation; K562 cells, 10 uM, 30 min; active = over 0.2 and 3.5 SD of the protein, either way, in both replicates (recomputed). The essentials: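 K562 cells at 2×10^6 cells/mL were treated for 30 min with 10 μM compound, and aliquots were heated for 3 min over 48°C-58°C before pooling. Extraction used PBS with 0.5% NP-40 at 4°C, and soluble protein was the supernatant after 21,000xg for 90 min, measured by TMTpro 16plex LC-MS/MS with channel sums equalised. Thermal stability values, relative to control samples and from duplicates, are log2 fold changes.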
As for TMEM120A (UniProt Q9BXJ8), the log2 fold change is active: -0.404.

With TMC6 (UniProt Q7Z403), the log2 fold change is inactive: 0.179.

On to TMEM168 (UniProt Q9H0V1), for which the log2 fold change is inactive: 0.078.

Take TMEM185B (UniProt Q9H7F4): the log2 fold change was inactive: 0.

In the case of TMEM222 (UniProt Q9H0R3), the log2 fold change was inactive: 0.034.

As to TLN2 (UniProt Q9Y4G6), the log2 fold change was inactive: -0.032.

Turning to TMED1 (UniProt Q13445), the log2 fold change was inactive: -0.022.

With TMOD2 (UniProt Q9NZR1), the log2 fold change was inactive: 0.081.

Consider TMA7 (UniProt Q9Y2S6), for which the log2 fold change is inactive: 0.021.

For the target TMEM175 (UniProt Q9BSA9), the log2 fold change is inactive: -0.046.

On to TMEM69 (UniProt Q5SWH9), for which the log2 fold change was inactive: -0.104.

Regarding TMEM68 (UniProt Q96MH6), the log2 fold change is inactive: 0.04.

Regarding TLE5 isoform 2 (UniProt Q08117), the log2 fold change was inactive: 0.13.

On to TMEM87A (UniProt Q8NBN3), for which the log2 fold change is inactive: 0.035.

TLN1 (UniProt Q9Y490): the log2 fold change was inactive: -0.02.

Take TLR4 (UniProt O00206): the log2 fold change was inactive: -0.008.

TMEM259 (UniProt Q4ZIN3): the log2 fold change was inactive: -0.048.

Regarding TMPO isoform 2 (UniProt P42167), the log2 fold change was inactive: 0.

For the target TMX1 (UniProt Q9H3N1), the log2 fold change is inactive: 0.016.

As to TMEM123 (UniProt Q8N131), the log2 fold change is inactive: 0.003.

In the case of TMEM167A (UniProt Q8TBQ9), the log2 fold change was inactive: 0.013.

With TMPO (UniProt P42166), the log2 fold change was inactive: -0.028.

Turning to TMEM237 isoform 3 (UniProt Q96Q45), the log2 fold change is inactive: 0.013.

The record behind these values is the supplement of paper PMC10849652.
